Only a part is listed here, and it is no random draw. For part of these data: At the low end of the ranking, values are background and their order means little. Some of the results follow. For part of these data: The source does not settle which construct or isoform was used.
Assays:
Test in all cases: DAPPL (digital affinity profiling via proximity ligation, sequencing)
Conditions in all cases: 10 mM Tris-HCl pH 7.5, 50 mM NaCl, 1 mM DTT, 4% glycerol, room temperature, 30 min; GST-TFs on glutathione beads, 16-mer random dsDNA library, 0.1% …; high values mean tight binding; double strand, one strand shown; scale: fold enrichment (6-mer frequency, TF over GST control)
GABPA = target: T1, GABPA (UniProt Q06546)
T1 sequence: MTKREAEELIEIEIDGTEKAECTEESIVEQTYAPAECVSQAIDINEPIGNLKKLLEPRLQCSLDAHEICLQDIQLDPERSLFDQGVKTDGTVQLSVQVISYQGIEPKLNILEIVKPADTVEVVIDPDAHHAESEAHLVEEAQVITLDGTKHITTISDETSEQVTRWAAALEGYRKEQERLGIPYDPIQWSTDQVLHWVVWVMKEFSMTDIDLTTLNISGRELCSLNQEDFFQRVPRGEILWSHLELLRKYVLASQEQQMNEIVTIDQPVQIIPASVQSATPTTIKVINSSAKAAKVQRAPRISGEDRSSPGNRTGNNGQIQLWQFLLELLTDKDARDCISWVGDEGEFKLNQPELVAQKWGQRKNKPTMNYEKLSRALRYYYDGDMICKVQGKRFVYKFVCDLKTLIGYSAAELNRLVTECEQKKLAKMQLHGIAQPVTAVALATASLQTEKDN

ETS1 = target: T2, ETS1 (UniProt P14921)
T2 sequence: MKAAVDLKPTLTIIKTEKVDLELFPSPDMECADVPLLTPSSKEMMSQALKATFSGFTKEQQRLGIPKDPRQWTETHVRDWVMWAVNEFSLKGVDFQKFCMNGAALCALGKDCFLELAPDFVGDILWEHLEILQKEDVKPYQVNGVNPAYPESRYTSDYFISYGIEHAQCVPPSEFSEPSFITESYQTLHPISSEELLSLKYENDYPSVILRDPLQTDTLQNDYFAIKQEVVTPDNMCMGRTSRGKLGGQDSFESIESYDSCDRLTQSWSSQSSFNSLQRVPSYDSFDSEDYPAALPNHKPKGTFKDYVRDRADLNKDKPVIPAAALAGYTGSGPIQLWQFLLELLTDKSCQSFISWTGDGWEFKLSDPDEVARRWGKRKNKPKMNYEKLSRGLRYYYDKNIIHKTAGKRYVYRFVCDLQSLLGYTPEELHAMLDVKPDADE

SPDEF = target: T3, SPDEF (UniProt O95238)
T3 sequence: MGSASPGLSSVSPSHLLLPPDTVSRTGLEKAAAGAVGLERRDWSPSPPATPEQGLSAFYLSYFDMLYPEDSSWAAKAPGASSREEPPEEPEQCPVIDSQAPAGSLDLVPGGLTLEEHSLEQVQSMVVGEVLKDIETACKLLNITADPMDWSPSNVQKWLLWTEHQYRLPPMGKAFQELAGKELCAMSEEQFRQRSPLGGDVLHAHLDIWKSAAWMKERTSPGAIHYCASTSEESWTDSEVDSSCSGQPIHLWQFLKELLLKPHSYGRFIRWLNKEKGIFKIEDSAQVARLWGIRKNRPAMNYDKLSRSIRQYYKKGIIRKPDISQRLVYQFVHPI

| Sequence | binding signal (GABPA) | binding signal (ETS1) | binding signal (SPDEF) |
| --- | --- | --- | --- |
| TATCGG | 0.829 | 0.848 | 0.854 |
| GGTGGC | 0.778 | 0.806 | 0.589 |
| GAGATA | 0.709 | 0.638 | 0.67 |
| AGGCGC | 0.591 | 0.575 | 0.492 |
| GATGAG | 0.812 | 0.88 | 0.795 |
| ACAGAC | 0.842 | 0.809 | 0.803 |
| GGGAGG | 0.31 | 0.318 | 0.287 |
| GGGAAC | 0.633 | 0.662 | 0.691 |
| GCCACG | 0.972 | 1 | 0.962 |
| AGGAGT | 0.367 | 0.361 | 0.344 |
| GTCCGA | 0.845 | 0.854 | 0.868 |
| TGCGGG | 0.829 | 0.783 | 0.754 |
| AGAGAG | 0.488 | 0.47 | 0.477 |
| GCGGAT | 0.951 | 0.877 | 1.25 |
| GAGCCA | 0.605 | 0.508 | 0.515 |
| TAGGGG | 0.916 | 0.729 | 0.817 |
| GGACCA | 0.77 | 0.758 | 0.781 |
| GGACCG | 0.784 | 0.817 | 0.846 |
| GCGGTC | 0.632 | 0.704 | 0.594 |
| CGGACG | 0.388 | 0.436 | 0.527 |
| GTAAAG | 0.908 | 0.899 | 0.887 |

For convenience, some entries already given:

| Sequence | binding signal (GABPA) | binding signal (ETS1) | binding signal (SPDEF) |
| --- | --- | --- | --- |
| TGCGGG | 0.829 | 0.783 | 0.754 |
| AGAGAG | 0.488 | 0.47 | 0.477 |

Continued:

| Sequence | binding signal (GABPA) | binding signal (ETS1) | binding signal (SPDEF) |
| --- | --- | --- | --- |
| AGTCCG | 0.558 | 0.575 | 0.642 |
| GAGCAC | 0.757 | 0.697 | 0.683 |
| GAGTCA | 0.287 | 0.28 | 0.28 |
| CGCAGA | 0.831 | 0.808 | 0.756 |
| ATCAGG | 0.931 | 1 | 0.93 |
| GCAGGC | 0.724 | 0.716 | 0.62 |
| AGCGGT | 0.648 | 0.639 | 0.728 |
| CCGAGT | 0.897 | 0.927 | 0.91 |
| CGGTCA | 0.752 | 0.832 | 0.886 |
| GGCGAT | 0.817 | 0.846 | 0.752 |
| GTGGCG | 0.847 | 0.828 | 0.744 |
| GGCCAT | 0.884 | 0.791 | 0.796 |
| GGGACT | 0.712 | 0.662 | 0.639 |
| GTGAAA | 0.762 | 0.737 | 0.694 |
| CAGTAC | 0.894 | 0.788 | 0.777 |
| GTCAAC | 0.948 | 0.979 | 0.865 |
| CACGTG | 0.634 | 0.631 | 0.578 |
| GCAGGG | 0.605 | 0.584 | 0.644 |
| GACCAC | 0.845 | 0.883 | 0.931 |
| GCAGCG | 0.842 | 0.785 | 0.826 |
| AGAGGG | 0.694 | 0.703 | 0.71 |

— paper PMC7862700
